Data as given in PubChem BioAssay AID743121 (NCATS, 2013).
This is an unselected part of about 26,000 reagents. 167 of all reagents (0.63%) were called active. 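Calls are per gene from RSA p-values that are not deposited; an individual active-marked siRNA can sensitise only weakly.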 Reagents against one gene are numbered here. Not all columns of the deposit are shown. Reagent sequences are not shown.

Test: 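Partners whose loss is lethal together with topoisomerase I blockade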 (primary screen)
System: MDA-MB-231 cells, a human breast cancer line
Reagent: single siRNA against human genes, 20 nM siRNA (0.8 pmol per well)
Timing: 120 h (drug added 48 h after transfection, read 72 h later)
Treatment: camptothecin 20 nM (about EC30) for 72 h; vehicle 0.1% DMSO in parallel plates
Read-out: 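Cell viability by ATP luminescence (CellTiter-Glo) as % of non-targeting siRNA wells, and the log2 ratio of viability without drug over viability with camptothecin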
Direction: log2 vehicle/camptothecin viability: higher = stronger sensitisation to camptothecin; viability with camptothecin: higher = more viable cells
Call rule: 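Each gene scored by redundant siRNA activity (RSA) over its individual siRNA ratios; a gene is called active at p < 0.001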

Knock-down of LOX #1 gave: log2 vehicle/camptothecin viability 0.117; viability with camptothecin (% of control) = 41; inactive. For LOX #2 the deposit lists log2 vehicle/camptothecin viability -0.577; viability with camptothecin (% of control) = 79.5; inactive. Against LOX #3, the entry reads log2 vehicle/camptothecin viability -0.127; viability with camptothecin (% of control) = 107; inactive. Against PTH1R #1 the deposit lists log2 vehicle/camptothecin viability -0.207; viability with camptothecin (% of control) = 104; inactive. For PTH1R #2, the entry reads log2 vehicle/camptothecin viability -0.183; viability with camptothecin (% of control) = 84.8; inactive. Knock-down of PTH1R #3 came out at: log2 vehicle/camptothecin viability -0.379; viability with camptothecin (% of control) = 75.3; inactive.

With knock-down of PTH1R #4 the results were log2 vehicle/camptothecin viability -0.129; viability with camptothecin (% of control) = 37.1; inactive. MMP27 #1 gave log2 vehicle/camptothecin viability 0.122; viability with camptothecin (% of control) = 22.2; inactive. With knock-down of MMP27 #2, the screen gave log2 vehicle/camptothecin viability -0.19; viability with camptothecin (% of control) = 97.2; inactive. For MMP27 #3, the values are log2 vehicle/camptothecin viability -0.485; viability with camptothecin (% of control) = 71.3; inactive. Against TFDP2 #1, the entry reads log2 vehicle/camptothecin viability -0.0507; viability with camptothecin (% of control) = 74.8; inactive. For TFDP2 #2 the deposit lists log2 vehicle/camptothecin viability -0.278; viability with camptothecin (% of control) = 93.7; inactive.

Silencing of TFDP2 #3 resulted in: log2 vehicle/camptothecin viability -0.678; viability with camptothecin (% of control) = 25.1; inactive. Silencing of TFDP2 #4 came out at: log2 vehicle/camptothecin viability -0.441; viability with camptothecin (% of control) = 58.3; inactive. PROCA1 #1 scored log2 vehicle/camptothecin viability 1.62; viability with camptothecin (% of control) = 19.2; inactive. For PROCA1 #2, the entry reads log2 vehicle/camptothecin viability -0.0481; viability with camptothecin (% of control) = 96; inactive. With knock-down of PROCA1 #3, the record shows log2 vehicle/camptothecin viability -0.21; viability with camptothecin (% of control) = 65.2; inactive. For PROCA1 #4, the entry reads log2 vehicle/camptothecin viability 0.0647; viability with camptothecin (% of control) = 106; inactive.

Part of the list above, reduced to “viability with camptothecin (% of control)”.
TFDP2 #1: 74.8
TFDP2 #2: 93.7

More results:
After knock-down of P2RX6 #1, the record shows log2 vehicle/camptothecin viability 0.591; viability with camptothecin (% of control) = 50.7; inactive. Depletion of P2RX6 #2 resulted in: log2 vehicle/camptothecin viability -0.188; viability with camptothecin (% of control) = 93; inactive. P2RX6 #3 showed log2 vehicle/camptothecin viability -0.579; viability with camptothecin (% of control) = 32.4; inactive. With knock-down of P2RX6 #4, the record shows log2 vehicle/camptothecin viability 0.154; viability with camptothecin (% of control) = 67.7; inactive. After knock-down of CALY #1 the results were log2 vehicle/camptothecin viability -0.509; viability with camptothecin (% of control) = 96.9; inactive. CALY #2 showed log2 vehicle/camptothecin viability -0.152; viability with camptothecin (% of control) = 69.3; inactive.

CALY #3 gave log2 vehicle/camptothecin viability -0.344; viability with camptothecin (% of control) = 54.5; inactive. With knock-down of LAMA5 #1 the results were log2 vehicle/camptothecin viability -0.268; viability with camptothecin (% of control) = 57.5; inactive. Against LAMA5 #2, the values are log2 vehicle/camptothecin viability 0.132; viability with camptothecin (% of control) = 84.2; inactive. For LAMA5 #3, the values are log2 vehicle/camptothecin viability -0.179; viability with camptothecin (% of control) = 71.3; inactive. Silencing of LAMA5 #4 came out at: log2 vehicle/camptothecin viability -0.0149; viability with camptothecin (% of control) = 95.1; inactive. P2RY6 #1 scored log2 vehicle/camptothecin viability 0.204; viability with camptothecin (% of control) = 44.4; inactive.

Against P2RY6 #2, the values are log2 vehicle/camptothecin viability -0.0194; viability with camptothecin (% of control) = 58.4; inactive. Depletion of P2RY6 #3 resulted in: log2 vehicle/camptothecin viability -0.237; viability with camptothecin (% of control) = 68; inactive. P2RY6 #4 scored log2 vehicle/camptothecin viability -0.311; viability with camptothecin (% of control) = 84.2; inactive. TRAIP #1 showed log2 vehicle/camptothecin viability -0.25; viability with camptothecin (% of control) = 110; inactive. With knock-down of TRAIP #2 the results were log2 vehicle/camptothecin viability -0.759; viability with camptothecin (% of control) = 38.8; inactive. With knock-down of TRAIP #3, the record shows log2 vehicle/camptothecin viability 0.0523; viability with camptothecin (% of control) = 61.3; inactive.

TRAIP #4 showed log2 vehicle/camptothecin viability -0.267; viability with camptothecin (% of control) = 28.9; inactive.
